# Some of the results follow.
# Amino acid sequences for entries named in this document (tags omitted). A change or cut given only in a name is not applied to a line headed by its entry.
# UniProt Q15785: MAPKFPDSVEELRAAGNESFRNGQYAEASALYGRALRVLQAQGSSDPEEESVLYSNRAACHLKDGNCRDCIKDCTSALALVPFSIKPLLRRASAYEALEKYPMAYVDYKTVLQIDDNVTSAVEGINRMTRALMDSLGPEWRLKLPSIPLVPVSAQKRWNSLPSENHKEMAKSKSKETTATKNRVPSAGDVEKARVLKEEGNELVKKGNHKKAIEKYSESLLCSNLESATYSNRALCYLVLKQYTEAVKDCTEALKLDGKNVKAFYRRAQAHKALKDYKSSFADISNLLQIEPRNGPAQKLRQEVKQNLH
# UniProt P28289: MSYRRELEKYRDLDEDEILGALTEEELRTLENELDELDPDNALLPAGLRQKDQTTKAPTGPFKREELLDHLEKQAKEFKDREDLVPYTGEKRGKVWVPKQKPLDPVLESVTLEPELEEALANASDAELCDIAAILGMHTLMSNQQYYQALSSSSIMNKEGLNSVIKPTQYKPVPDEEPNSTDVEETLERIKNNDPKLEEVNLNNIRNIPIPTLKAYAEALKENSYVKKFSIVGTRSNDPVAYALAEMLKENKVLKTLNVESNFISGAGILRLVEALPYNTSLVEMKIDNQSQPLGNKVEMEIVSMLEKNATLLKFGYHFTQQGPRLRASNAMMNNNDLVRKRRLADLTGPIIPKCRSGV
# UniProt Q15628: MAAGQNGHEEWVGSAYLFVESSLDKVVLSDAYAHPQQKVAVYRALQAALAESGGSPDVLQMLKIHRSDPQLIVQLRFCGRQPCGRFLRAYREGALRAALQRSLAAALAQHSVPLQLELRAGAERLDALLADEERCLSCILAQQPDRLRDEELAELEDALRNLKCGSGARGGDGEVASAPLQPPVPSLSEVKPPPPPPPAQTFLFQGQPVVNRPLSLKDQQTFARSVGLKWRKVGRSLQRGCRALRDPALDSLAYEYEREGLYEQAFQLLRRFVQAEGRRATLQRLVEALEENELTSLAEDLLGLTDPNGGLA
# UniProt Q4ZIN3: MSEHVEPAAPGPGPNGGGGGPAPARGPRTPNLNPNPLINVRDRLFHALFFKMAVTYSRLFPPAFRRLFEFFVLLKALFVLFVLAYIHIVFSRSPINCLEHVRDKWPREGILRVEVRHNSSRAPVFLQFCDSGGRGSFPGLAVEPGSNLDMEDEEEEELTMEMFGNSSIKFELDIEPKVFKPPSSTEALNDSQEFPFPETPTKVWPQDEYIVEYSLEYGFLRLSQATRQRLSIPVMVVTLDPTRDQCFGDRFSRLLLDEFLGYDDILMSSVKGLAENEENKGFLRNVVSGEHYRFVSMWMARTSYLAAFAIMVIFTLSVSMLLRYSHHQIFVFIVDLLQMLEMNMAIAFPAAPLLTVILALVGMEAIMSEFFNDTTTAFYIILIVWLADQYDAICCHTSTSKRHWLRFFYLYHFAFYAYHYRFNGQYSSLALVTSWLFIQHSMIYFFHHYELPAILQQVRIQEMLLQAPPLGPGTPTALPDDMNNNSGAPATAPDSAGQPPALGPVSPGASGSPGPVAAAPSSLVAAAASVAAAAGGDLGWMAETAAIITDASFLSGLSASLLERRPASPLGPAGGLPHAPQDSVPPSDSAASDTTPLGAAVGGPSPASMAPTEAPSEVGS
# UniProt Q9NXH8: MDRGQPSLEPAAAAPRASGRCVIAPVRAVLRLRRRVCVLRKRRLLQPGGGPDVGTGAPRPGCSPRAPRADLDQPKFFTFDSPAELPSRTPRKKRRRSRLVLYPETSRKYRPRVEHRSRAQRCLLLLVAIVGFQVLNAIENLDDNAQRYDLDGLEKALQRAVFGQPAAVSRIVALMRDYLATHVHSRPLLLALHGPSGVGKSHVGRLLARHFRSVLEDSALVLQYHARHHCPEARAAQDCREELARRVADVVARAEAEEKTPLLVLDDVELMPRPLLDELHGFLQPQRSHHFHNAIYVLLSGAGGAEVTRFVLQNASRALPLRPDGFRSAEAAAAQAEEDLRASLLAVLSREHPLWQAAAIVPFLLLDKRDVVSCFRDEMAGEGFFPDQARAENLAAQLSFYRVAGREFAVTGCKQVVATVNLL
# UniProt O14657: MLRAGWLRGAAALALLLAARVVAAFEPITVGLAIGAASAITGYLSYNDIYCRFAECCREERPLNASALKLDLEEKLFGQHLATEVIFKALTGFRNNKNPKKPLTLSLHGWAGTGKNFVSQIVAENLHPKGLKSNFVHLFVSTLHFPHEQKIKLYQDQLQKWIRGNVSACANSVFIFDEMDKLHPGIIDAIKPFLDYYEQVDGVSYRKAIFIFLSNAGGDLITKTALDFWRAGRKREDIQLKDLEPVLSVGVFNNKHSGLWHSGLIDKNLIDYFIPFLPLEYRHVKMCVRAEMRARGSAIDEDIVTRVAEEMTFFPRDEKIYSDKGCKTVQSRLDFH
# UniProt Q5T3F8: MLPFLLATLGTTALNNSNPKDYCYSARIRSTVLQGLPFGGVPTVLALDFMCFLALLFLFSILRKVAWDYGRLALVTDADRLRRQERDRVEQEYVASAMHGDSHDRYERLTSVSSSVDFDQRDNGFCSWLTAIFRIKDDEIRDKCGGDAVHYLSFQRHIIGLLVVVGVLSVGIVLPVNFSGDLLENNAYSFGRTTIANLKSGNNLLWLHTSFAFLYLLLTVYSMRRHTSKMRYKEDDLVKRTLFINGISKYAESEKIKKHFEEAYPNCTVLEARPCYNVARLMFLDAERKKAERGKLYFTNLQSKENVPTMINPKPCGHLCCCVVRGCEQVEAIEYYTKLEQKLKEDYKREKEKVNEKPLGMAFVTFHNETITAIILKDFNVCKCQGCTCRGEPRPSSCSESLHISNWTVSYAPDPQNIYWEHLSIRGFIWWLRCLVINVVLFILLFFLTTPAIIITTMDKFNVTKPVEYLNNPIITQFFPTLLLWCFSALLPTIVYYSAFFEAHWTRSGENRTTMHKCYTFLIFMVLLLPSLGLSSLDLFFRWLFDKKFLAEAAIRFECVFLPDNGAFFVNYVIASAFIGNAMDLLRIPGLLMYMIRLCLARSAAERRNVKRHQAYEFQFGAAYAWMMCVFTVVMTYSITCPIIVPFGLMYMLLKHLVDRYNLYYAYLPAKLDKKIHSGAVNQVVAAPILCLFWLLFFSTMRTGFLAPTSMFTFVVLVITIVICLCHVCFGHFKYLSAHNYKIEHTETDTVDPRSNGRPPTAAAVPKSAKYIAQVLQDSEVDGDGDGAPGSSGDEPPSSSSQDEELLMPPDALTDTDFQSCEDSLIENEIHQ
# UniProt P57088: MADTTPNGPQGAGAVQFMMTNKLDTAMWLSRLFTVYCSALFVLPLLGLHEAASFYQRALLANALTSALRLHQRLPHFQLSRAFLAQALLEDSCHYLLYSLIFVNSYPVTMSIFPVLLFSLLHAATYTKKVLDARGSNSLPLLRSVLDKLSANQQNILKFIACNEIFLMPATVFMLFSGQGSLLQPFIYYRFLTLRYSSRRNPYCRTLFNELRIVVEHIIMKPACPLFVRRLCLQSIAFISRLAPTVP
# Legend:
# Assay in all cases: log2 fold change, soluble protein after heating vs DMSO (PISA); higher = thermal stabilisation; K562 lysate, 10 uM; active = over 0.2 and 3.5 SD of the protein, either way, in both replicates (recomputed)
# erlotinib = compound: C#Cc1cccc(Nc2ncnc3cc(OCCOC)c(OCCOC)cc23)c1 [erlotinib]
# In short: (§1)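 K562 pellets were dounce-homogenised in PBS pH 7.4 with 1 mM MgCl2, and the crude extract at 1 mg/mL protein was treated with 10 μM compound for 30 min. Aliquots were heated for 3 min across 48°C-58°C, pooled, and brought to 0.5% NP-40 at 4°C; soluble protein was the supernatant after 21,000xg for 90 min. Soluble protein was quantified by TMTpro 16plex LC-MS/MS with channel sums equalised, and reported as log2 fold change in thermal stability against DMSO controls, with values from duplicates.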
# [1] = compound: C/C(=N\NC(=O)C1=CC(=CC=C1)S(=O)(=O)N2CCOCC2)/C3=C(C=CC(=C3)Cl)O
# In short: as §1
# [2] = compound: C1=CC(=CC=C1C2=NC3=C(N2)C=C(C=C3)C(=O)N)OC4=CC=C(C=C4)Cl
# In short: as §1
# [3] = compound: C1=CC2=C(C=CC(=C2)/C=C\3/C(=O)NC(=NCC4=CC=CS4)S3)N=C1
# In short: as §1
# [4] = compound: C1=CC2=NC=CN=C2C=C1/C=C/3\C(=O)NC(=O)S3
# In short: as §1
# [5] = compound: C1=CC=C(C=C1)C2=NC(=C(N2)C3=CC=NC=C3)C4=CC(=C(C=C4)Cl)O
# In short: as §1
# [6] = compound: C1=CC=C2C(=C1)C3=NNC4=CC=CC(=C43)C2=O
# In short: as §1
# [7] = compound: C1CCN(C1)C(=O)NC2=CC=CC(=C2)NC3=NC=C(C(=N3)NCCC4=CN=CN4)Br
# In short: as §1
# [8] = compound: C1CN(CCC1(CC2=CC=C(C=C2)Cl)N)C3=NC=NC4=C3C=CN4
# In short: as §1
# IRAK-1-4 Inhibitor I = compound: C1COCCN1CCN2C3=CC=CC=C3N=C2NC(=O)C4=CC(=CC=C4)[N+](=O)[O-] [IRAK-1-4 Inhibitor I]
# In short: as §1
# ibrutinib = compound: C=CC(=O)N1CCC[C@@H](n2nc(-c3ccc(Oc4ccccc4)cc3)c3c(N)ncnc32)C1 [ibrutinib]
# In short: as §1
# [9] = compound: CC(=O)c1cnc2ccc(-c3cc(Cl)c(O)c(Cl)c3)nc2c1N[C@H]1CC[C@H](CN(C)C)CC1
# In short: as §1
# ralimetinib = compound: CC(C)(C)Cn1c(N)nc2ccc(-c3[nH]c(C(C)(C)C)nc3-c3ccc(F)cc3)nc21 [ralimetinib]
# In short: as §1
# [10] = compound: CC(C)(O)CC(=O)NCCn1ccc2ncnc(Nc3ccc(Oc4cccc(C(F)(F)F)c4)c(Cl)c3)c21
# In short: as §1
# [11] = compound: CC(C)C1=C2N=C(C=C(N2N=C1)NCC3=CC=CC=C3)NCCCCCCN
# In short: as §1
# [12] = compound: CC1=C(C(CC(=O)N1)C2=CC=C(C=C2)C(F)(F)F)C(=O)NC3=C(C=C4C(=C3)C=NN4)F
# In short: as §1
# [13] = compound: CC1=C(C2=C(C=C1)C(=O)C3=CC=CC=C3N2CCCN)C
# In short: as §1
# [14] = compound: CC1=C(C=C(C=C1)NC(=O)C2=CC(=CC=C2)C(C)(C)C#N)NC3=CC4=C(C=C3)N=CN(C4=O)C
# In short: as §1
# [15] = compound: CC1=C(C=C(C=C1)NC(=O)C2=CC(=CC=C2)N(C)C)NC(=O)C3=CC=C(C=C3)O
# In short: as §1
# [16] = compound: CC1=CC=C(C=C1)SC2=C3C=C(SC3=CN=C2)C(=O)N
# In short: as §1
Target,log2 fold change (erlotinib),log2 fold change [1],log2 fold change [2],log2 fold change [3],log2 fold change [4],log2 fold change [5],log2 fold change [6],log2 fold change [7],log2 fold change [8],log2 fold change (IRAK-1-4 Inhibitor I),log2 fold change (ibrutinib),log2 fold change [9],log2 fold change (ralimetinib),log2 fold change [10],log2 fold change [11],log2 fold change [12],log2 fold change [13],log2 fold change [14],log2 fold change [15],log2 fold change [16]
TOMM34 (UniProt Q15785),inactive: -0.02,inactive: -0.049,inactive: 0.009,inactive: -0.001,inactive: 0.006,inactive: -0.009,inactive: -0.023,inactive: 0.024,inactive: -0.018,inactive: 0.017,inactive: 0.022,inactive: 0.01,inactive: 0.033,inactive: -0.01,inactive: -0.015,inactive: -0.02,inactive: -0.041,inactive: 0.013,inactive: 0.019,inactive: 0.004
TMOD1 (UniProt P28289),inactive: 0.002,inactive: -0.091,inactive: 0.018,inactive: 0.018,inactive: -0.001,inactive: 0.003,inactive: 0.013,inactive: -0.005,inactive: -0.002,inactive: 0.012,inactive: 0.002,inactive: 0.007,inactive: -0.015,inactive: -0.02,inactive: 0,inactive: -0.004,inactive: 0.006,inactive: 0,inactive: 0.016,inactive: -0.019
TRADD (UniProt Q15628),inactive: 0.053,active: 0.258,inactive: 0.03,inactive: -0.224,inactive: 0.009,inactive: -0.013,inactive: 0.251,inactive: 0.029,inactive: 0.076,inactive: 0.033,inactive: 0.013,inactive: 0.017,inactive: -0.005,inactive: -0.012,inactive: -0.018,inactive: -0.015,inactive: -0.001,inactive: 0.017,inactive: 0.021,inactive: 0.019
TMEM259 (UniProt Q4ZIN3),inactive: 0.127,inactive: -0.127,inactive: -0.05,inactive: -0.059,inactive: -0.01,inactive: 0.016,inactive: 0.019,inactive: -0.053,inactive: 0.152,inactive: -0.007,inactive: -0.024,inactive: -0.076,inactive: 0.035,inactive: -0.007,inactive: 0.111,inactive: -0.003,inactive: -0.048,inactive: -0.004,inactive: 0.007,inactive: 0.069
TOR4A (UniProt Q9NXH8),inactive: 0.02,inactive: -0.097,inactive: -0.06,inactive: 0.016,inactive: -0.013,inactive: -0.006,inactive: 0.04,inactive: 0.033,inactive: 0.034,inactive: -0.012,inactive: 0.004,inactive: -0.095,inactive: 0.014,inactive: -0.025,inactive: -0.005,inactive: -0.008,inactive: -0.056,inactive: -0.005,inactive: 0.049,inactive: 0.002
TOR1B (UniProt O14657),inactive: -0.033,inactive: -0.034,inactive: 0.013,inactive: -0.008,inactive: -0.015,inactive: -0.082,inactive: -0.024,inactive: 0.018,inactive: -0.073,inactive: 0.019,inactive: 0.003,inactive: 0.006,inactive: 0.016,inactive: 0.039,inactive: 0.012,inactive: -0.012,inactive: 0.015,inactive: 0.013,inactive: 0.01,inactive: -0.004
TMEM63B (UniProt Q5T3F8),inactive: 0.004,inactive: 0.049,inactive: 0.002,inactive: 0.047,inactive: 0.027,inactive: 0.013,inactive: -0.051,inactive: -0.011,inactive: 0.002,inactive: -0.019,inactive: 0.002,inactive: 0.01,inactive: 0.013,inactive: -0.034,inactive: -0.023,inactive: 0.033,inactive: 0.008,inactive: 0.005,inactive: -0.016,inactive: -0.008
TMEM33 (UniProt P57088),inactive: 0.02,inactive: 0.022,inactive: 0.005,inactive: -0.034,inactive: 0.001,inactive: -0.017,inactive: -0.042,inactive: 0,inactive: 0.046,inactive: 0.033,inactive: 0.019,inactive: -0.014,inactive: -0.001,inactive: 0.032,inactive: 0.029,inactive: 0.01,inactive: -0.065,inactive: 0.024,inactive: -0.027,inactive: -0.01

# Reference: the supplement of paper PMC10849652
